From PMC10164551, “Structural basis of tRNAPro acceptor stem recognition by a bacterial trans-editing domain”
Numbering of substitutions follows the chain as printed. A weaker result is weaker than the reference pair of the same experiment. Protein sequences can lack the tags named with them.

How the values were obtained:
[1] = target: T1, ProXp-ala R80A (Caulobacter crescentus) (UniProt Q9ABV9); assay: AUC; conditions: 1 mM MgCl2, sw at 9.6 μM similar to apo RNA, very weak interaction; AUC: 50 mM HEPES pH 6.8, 30 mM KCl, 1 mM MgCl2, 20 °C; recombinant protein; residues 1-168
T1 sequence (looked up): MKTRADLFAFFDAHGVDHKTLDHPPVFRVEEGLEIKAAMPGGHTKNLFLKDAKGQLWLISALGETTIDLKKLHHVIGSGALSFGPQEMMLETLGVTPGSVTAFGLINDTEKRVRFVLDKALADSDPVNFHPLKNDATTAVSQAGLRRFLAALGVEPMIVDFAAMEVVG

[2] = target: T2, ProXp-ala K45A (Caulobacter crescentus) (UniProt Q9ABV9); assay: NMR; conditions: small CSPs, reduced binding; NMR: same phosphate buffer, 10% D2O, 25 °C; recombinant protein; residues 1-168
T2 sequence (looked up): T1 sequence (looked up) with K45A, A80R

Sequence	binding result [1]	binding result [2]
CGGCGAGUUCGCUCGCCGACCA [microhelixPro]	binds more weakly	–
CGGCGAGGGAGGUUCGAAUCCUCUCUCGCCGACCA [minihelixPro]	–	binds more weakly
